From patent CN113045663A
These are yes or no findings as the source states them, for the method shown. Some entries that bind do so weakly or less than the wild type. One block for each binder: values may come before it.

What was measured:
[1] = molecular target: T1, 重组HE4抗原 (GenBank: AAO52683.1) (human) (UniProt Q14508); assay: ELISA additivity on coated HE4 antigen
T1 sequence (looked up): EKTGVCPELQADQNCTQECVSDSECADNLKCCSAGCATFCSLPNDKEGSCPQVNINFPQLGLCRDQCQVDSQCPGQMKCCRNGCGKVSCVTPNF

[2] = molecular target: T1, 重组HE4抗原 (GenBank: AAO52683.1) (human); assay: SPR, Biacore sequential injection on antigen chip

binding [1]: binds | binding [2]: binds
B1: 抗HE4纳米抗体1A8 (VHH)
VHH: QLQESGGGLVQAGDSLRLSCAASGPRFSSYGMGWFRQAPGKEREFVAAISMSGTMTDYTDSVKGRFTISRDNAKNTVYLQMNSLKPDDTAVYCCAAGGRRGWGRALFAYDYWGQGTQVTVSS

binding [1]: binds | binding [2]: binds
B2: 纳米抗体3C8 (VHH)
VHH: QLQESGGGLVQAGGSVRLSCAASGRTFRRYHMGWFRQTPGKEREFVAAISWSGGTTYYAESVKGRFTISRDNAKNTIYLQMNSLKPEDTAVYYCAPTYGNYWHPSGYWGQGTQVTVSS
